Assay results published in PMC8184511.
No constants are given. Whether binding was seen depends on the method and setting. Binding seen in cells or lysates may run through a third protein. Some results given as binding are weak or reduced against the parent protein; the word gives no strength.

By UniProt entry, the sequences of proteins in these tests, tags left out.
UniProt O95714: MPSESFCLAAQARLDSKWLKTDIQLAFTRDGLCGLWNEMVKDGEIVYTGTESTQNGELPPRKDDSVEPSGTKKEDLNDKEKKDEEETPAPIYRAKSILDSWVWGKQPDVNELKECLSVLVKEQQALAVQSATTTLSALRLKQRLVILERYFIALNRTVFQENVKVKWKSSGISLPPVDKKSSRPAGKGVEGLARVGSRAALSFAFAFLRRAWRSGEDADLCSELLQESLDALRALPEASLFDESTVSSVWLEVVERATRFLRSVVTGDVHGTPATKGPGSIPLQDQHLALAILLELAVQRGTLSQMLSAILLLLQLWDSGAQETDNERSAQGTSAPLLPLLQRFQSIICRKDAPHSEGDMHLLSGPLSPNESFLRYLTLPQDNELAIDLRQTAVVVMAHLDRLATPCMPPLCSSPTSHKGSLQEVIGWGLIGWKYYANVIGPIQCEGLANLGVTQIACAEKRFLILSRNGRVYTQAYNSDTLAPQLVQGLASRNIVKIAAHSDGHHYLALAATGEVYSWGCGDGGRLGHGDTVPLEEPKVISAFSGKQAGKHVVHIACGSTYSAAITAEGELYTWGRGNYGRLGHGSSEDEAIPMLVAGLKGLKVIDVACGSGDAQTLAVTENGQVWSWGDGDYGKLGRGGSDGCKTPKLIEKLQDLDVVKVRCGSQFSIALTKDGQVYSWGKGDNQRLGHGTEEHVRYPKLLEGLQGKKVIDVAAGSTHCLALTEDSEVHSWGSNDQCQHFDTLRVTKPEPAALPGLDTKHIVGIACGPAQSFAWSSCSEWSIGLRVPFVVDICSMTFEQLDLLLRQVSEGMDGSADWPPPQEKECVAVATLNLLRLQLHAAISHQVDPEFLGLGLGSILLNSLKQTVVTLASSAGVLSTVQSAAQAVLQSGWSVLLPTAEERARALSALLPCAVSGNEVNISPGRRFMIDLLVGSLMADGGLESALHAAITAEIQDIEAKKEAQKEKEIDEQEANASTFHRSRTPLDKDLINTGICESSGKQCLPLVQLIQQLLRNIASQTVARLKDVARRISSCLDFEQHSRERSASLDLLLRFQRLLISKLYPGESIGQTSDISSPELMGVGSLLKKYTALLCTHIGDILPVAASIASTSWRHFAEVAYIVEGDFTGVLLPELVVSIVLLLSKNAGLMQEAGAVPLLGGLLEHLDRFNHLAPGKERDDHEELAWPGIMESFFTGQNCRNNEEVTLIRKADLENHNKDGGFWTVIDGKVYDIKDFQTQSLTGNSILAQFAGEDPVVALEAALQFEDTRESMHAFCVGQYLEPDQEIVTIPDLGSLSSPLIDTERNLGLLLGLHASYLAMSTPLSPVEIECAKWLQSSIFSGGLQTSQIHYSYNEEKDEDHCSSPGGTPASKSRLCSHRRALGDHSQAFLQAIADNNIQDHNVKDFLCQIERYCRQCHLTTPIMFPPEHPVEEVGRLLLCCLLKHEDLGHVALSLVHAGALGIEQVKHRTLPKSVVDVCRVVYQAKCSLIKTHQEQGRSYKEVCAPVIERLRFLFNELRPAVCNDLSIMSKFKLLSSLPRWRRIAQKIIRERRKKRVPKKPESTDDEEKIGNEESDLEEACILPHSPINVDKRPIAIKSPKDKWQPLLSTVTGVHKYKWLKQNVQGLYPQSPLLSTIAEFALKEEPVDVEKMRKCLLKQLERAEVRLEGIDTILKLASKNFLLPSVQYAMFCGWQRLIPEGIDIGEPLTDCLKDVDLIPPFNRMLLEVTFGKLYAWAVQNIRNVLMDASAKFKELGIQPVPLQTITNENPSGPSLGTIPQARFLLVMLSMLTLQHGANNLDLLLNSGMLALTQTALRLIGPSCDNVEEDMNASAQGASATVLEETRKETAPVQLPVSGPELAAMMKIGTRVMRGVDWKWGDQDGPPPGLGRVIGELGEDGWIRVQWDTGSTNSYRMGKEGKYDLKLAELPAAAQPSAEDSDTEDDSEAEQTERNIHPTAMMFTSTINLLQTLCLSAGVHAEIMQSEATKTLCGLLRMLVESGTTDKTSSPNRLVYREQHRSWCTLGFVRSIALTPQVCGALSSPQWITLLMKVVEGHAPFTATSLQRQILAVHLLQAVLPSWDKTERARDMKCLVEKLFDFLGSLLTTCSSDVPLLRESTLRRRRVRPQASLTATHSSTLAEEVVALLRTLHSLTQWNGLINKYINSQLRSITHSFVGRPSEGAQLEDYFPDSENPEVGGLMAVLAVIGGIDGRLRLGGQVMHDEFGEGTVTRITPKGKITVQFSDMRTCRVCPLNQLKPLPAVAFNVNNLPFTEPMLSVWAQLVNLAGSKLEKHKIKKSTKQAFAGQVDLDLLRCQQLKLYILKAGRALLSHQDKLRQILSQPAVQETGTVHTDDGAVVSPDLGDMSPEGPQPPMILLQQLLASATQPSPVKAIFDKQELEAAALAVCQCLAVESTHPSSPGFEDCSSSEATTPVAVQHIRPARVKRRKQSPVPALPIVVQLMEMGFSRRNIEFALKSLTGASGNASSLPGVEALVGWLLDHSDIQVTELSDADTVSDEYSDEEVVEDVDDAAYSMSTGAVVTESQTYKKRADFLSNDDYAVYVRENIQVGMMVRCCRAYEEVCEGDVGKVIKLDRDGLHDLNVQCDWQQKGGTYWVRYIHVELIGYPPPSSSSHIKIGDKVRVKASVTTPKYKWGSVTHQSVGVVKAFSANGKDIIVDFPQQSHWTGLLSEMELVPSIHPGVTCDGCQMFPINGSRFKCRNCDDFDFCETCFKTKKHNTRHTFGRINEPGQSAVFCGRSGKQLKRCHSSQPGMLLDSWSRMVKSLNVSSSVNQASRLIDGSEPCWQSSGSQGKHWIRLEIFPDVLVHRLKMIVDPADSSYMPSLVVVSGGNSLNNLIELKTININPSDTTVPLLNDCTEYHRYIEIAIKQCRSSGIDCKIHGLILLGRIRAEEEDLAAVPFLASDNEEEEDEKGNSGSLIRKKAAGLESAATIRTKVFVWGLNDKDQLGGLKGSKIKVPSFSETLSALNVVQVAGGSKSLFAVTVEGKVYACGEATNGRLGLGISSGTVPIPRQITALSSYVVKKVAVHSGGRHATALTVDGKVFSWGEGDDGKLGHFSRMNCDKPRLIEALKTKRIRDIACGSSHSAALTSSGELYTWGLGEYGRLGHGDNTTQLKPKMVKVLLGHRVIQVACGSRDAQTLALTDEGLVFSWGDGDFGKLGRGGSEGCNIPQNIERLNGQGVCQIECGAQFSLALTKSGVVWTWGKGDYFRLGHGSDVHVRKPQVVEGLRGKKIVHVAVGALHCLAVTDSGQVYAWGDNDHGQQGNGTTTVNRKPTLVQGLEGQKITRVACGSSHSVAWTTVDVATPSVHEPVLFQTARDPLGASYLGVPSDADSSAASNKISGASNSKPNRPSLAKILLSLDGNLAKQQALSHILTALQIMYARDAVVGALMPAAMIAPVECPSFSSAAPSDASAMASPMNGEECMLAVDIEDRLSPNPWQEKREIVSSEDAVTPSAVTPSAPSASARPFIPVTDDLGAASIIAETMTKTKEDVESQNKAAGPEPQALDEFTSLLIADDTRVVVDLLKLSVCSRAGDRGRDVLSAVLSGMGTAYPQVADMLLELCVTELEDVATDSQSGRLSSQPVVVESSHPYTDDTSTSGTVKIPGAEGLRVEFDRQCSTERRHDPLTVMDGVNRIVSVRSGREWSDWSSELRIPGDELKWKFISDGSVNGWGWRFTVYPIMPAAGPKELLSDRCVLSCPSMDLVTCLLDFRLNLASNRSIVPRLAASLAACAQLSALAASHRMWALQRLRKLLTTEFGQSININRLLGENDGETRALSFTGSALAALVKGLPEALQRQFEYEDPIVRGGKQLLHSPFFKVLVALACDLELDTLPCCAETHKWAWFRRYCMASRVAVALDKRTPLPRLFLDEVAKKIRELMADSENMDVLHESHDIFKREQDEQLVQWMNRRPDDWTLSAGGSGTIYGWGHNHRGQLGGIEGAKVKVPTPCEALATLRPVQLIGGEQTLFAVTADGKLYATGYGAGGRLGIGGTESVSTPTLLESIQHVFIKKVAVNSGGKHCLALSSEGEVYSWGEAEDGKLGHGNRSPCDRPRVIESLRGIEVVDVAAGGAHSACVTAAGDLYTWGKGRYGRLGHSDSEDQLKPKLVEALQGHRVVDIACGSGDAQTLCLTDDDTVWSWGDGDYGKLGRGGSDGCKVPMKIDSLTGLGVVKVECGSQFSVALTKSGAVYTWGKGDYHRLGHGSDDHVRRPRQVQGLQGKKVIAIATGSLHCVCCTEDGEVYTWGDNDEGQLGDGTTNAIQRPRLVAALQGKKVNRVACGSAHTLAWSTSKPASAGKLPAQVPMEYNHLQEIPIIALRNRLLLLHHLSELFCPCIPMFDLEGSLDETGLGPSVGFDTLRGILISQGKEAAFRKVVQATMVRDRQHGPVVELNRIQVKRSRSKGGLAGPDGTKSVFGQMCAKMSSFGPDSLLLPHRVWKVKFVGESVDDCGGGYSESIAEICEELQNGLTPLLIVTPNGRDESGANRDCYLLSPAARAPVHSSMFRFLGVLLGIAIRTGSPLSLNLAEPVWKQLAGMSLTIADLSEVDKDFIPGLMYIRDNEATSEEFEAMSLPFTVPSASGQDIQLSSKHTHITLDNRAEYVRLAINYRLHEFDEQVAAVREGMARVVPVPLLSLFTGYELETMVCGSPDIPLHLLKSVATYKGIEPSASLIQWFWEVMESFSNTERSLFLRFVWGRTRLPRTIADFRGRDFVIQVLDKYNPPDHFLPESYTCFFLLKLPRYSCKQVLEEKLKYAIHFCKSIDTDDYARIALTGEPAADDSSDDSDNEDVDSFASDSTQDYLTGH

Legend:
[1] = target: FLAG-GFP-ASPM (abnormal spindle-like microcephaly-associated protein, tagged at the endogenous locus) (human (endogenous in HeLa)) (UniProt Q8IZT6); assay: co-IP; total cell lysates of FLAG-GFP-ASPM KI HeLa cells or CTR HeLa cells, immunoprecipitation with anti-FLAG, immunoblotting
[2] = target: ASPM (abnormal spindle-like microcephaly-associated protein), endogenous (human (endogenous in 293T and HeLa)) (UniProt Q8IZT6); assay: co-IP; total cell lysates of 293T cells transfected with siHERC2 or siBRCA1 for 48 hr, immunoprecipitation with anti-ASPM, immunoblotting
[3] = target: breast cancer type 1 susceptibility protein BRCA1, endogenous (human (endogenous in HeLa and 293T)) (UniProt P38398); assay: co-IP; total cell lysates of siCTR and siASPM 293T cells, and of ASPM KO and CTR HeLa cells, immunoprecipitation with anti-BRCA1, immunoblotting

- binding [1]: binds
- binding [2]: binds
- binding [3]: binds
Substance: E3 ligase HERC2, endogenous (from UniProt O95714 1-4834) (enzyme)
